No constants are given. Whether binding was seen depends on the method and setting. Binding seen in cells or lysates may run through a third protein. Some entries that bind do so weakly or less than the wild type.
Molecular target: glucose-regulated protein 78 (GRP78) (human (endogenous in Hs578T)) (UniProt P11021)
Test: co-IP; Hs578T cell extract (500 ug lysate) incubated overnight with 2 ug GRP78 antibody at 4 °C, anti-mouse IgG, Protein A/G PLUS-Agarose, washed 5x with lysis buffer; blotted for GRP78 and IGFBP-3; control IgG in parallel; endogenous proteins at basal levels

Sequences of proteins named here, by UniProt entry; tags and fusion partners are left off. Residues count along the entry.
UniProt P11021, residues 19-654: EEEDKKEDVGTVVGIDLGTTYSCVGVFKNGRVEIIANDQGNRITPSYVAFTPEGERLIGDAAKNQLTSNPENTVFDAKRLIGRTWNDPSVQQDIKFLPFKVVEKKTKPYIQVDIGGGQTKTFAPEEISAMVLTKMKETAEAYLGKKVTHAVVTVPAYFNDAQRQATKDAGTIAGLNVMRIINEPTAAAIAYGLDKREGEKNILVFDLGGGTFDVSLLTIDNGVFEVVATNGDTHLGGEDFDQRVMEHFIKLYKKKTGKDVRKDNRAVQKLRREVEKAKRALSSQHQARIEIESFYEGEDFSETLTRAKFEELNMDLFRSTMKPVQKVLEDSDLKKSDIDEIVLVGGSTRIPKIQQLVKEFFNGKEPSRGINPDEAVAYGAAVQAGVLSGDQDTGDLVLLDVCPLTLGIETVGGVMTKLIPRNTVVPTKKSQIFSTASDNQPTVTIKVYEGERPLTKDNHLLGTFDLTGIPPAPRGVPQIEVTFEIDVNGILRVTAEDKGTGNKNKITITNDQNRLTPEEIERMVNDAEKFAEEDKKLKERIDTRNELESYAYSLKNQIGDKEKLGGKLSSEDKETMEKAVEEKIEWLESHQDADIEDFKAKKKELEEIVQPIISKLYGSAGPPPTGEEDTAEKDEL
UniProt P17936, residues 28-291: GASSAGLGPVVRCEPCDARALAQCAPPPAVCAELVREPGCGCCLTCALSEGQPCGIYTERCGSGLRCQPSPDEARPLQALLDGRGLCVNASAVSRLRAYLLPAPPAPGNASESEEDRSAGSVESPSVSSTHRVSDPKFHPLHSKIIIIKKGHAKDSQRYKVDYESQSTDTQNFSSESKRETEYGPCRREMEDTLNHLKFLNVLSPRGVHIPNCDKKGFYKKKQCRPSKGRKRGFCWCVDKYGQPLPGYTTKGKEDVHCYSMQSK

- binding: binds
Substance: insulin-like growth factor binding protein 3 (IGFBP-3) (from UniProt P17936 28-291)

Source: paper PMC7767108
